# Patent publication US20260109755A1
# Sequences of proteins named here, by UniProt entry; tags and fusion partners are left off. A change or cut given only in a name is not applied to a line headed by its entry.
# UniProt Q96HL8: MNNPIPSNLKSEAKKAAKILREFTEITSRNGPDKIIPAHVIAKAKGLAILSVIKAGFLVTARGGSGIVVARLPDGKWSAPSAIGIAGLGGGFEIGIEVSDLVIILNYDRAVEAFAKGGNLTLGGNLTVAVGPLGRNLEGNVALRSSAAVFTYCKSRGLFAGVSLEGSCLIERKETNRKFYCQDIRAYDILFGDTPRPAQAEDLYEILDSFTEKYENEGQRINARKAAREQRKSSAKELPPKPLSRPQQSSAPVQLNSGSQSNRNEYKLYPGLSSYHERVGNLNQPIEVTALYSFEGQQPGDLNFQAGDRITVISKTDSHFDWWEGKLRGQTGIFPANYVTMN
# These are yes or no findings as the source states them, for the method shown. Some results given as binding are weak or reduced against the parent protein; the word gives no strength.
# Biological target: SH3 domain-containing YSC84-like 1 (SH3YL1), antigen of the antibodies (human) (UniProt Q96HL8)
# Assay: peptide microarray of SH3YL1 peptides
binder,measurement,value
"A3 antibody (human IgG1) (antibody, V domains shown) VH: EVQLLESGGGLVQPGGSLRLSCAASGFTFSNYAMSWVRQAPGKGLEWVSVISSDNSSTYYADSVKGRYTISRDNSKNTLYLQMNSLRAEDTAVYYCARVWRHFDYWGQGTLVTVSS VL: QSVLTQPPSASGTPGQRVTISCSGSSSNIGSNNVNWYQQLPGTAPKLLIYADSHRPSGVPDRFSGSKSGTSASLAISGLRSEDEADYYCASWDSSLSGYVFGGGTKLTVLG",binding,binds
"A4 antibody (human IgG1) (antibody, V domains shown) VH: EVQLLESGGGLVQPGGSLRLSCAASGFTFSNYYMSWVRQAPGKGLEWVSAISHNNSNTYYADSVKGRFTISRDNSKNTLYLQMNSLRAEDTAVYYCARKFSFFDYWGQGTLVTVSS VL: QSVLTQPPSASGTPGQRVTISCSGSSSNIGSNYVSWYQQLPGTAPKLLIYANSHRPSGVPDRFSGSKSGTSASLAISGLRSEDEADYYCGAWDSSLNGYVFGGGTKLTVLG",binding,binds
